Source: ChEMBL document CHEMBL3988442, “University of Dundee, Small-Polar-MMV Screening Library” (2021).

Protein sequences, listed by entry. Tags and fused reporters are not part of them. Residues count along the entry.
UniProt P9WPC5, whole entry: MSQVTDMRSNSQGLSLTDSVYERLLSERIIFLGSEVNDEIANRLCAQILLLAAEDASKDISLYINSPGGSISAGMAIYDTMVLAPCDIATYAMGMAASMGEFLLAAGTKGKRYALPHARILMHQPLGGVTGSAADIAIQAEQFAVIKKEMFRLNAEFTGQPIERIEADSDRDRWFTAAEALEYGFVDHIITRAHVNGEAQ
UniProt P9WPC3, whole entry partner: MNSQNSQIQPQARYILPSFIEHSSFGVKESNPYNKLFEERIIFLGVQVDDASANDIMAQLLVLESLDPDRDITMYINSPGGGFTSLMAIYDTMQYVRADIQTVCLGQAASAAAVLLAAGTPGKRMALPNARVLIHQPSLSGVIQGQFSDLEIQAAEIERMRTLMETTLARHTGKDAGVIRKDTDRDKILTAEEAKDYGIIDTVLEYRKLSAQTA
UniProt P9WFT3, whole entry: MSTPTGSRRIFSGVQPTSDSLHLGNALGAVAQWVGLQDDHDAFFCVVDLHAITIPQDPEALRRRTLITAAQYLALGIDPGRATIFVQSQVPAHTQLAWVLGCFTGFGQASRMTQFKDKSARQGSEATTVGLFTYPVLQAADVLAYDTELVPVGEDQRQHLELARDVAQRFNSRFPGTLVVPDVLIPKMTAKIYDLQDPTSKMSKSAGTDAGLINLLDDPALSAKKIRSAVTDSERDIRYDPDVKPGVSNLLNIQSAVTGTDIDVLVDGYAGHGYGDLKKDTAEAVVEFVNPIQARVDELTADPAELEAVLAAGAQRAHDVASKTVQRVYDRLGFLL
UniProt Q8IDJ8, 1-583: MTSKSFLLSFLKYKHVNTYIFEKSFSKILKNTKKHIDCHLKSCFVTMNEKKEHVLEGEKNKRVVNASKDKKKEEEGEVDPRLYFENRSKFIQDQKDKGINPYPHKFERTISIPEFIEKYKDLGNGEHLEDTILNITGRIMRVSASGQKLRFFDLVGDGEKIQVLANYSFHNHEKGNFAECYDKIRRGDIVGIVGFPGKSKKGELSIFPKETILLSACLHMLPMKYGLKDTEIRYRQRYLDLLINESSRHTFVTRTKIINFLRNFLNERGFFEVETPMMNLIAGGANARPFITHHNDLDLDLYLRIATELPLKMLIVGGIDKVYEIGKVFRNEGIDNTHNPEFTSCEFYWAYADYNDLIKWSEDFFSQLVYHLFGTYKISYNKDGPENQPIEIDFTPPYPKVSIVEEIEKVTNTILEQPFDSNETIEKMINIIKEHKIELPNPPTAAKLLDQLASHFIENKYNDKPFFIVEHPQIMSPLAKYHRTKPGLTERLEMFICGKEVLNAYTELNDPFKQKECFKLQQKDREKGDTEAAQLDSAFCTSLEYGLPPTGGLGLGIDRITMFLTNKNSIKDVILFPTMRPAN

ClpP1P2: 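Protease assay of ClpP1P2, read by the AMC dye that it sets free. Target: ClpP1P2, Mycobacterium tuberculosis (UniProt P9WPC5 and UniProt P9WPC3). Tested at 50 µM. Higher reads as stronger inhibition, judged from the few compounds that gave an IC50. Most other retested compounds had strongly negative values. About 69,000 compounds were tested under these conditions; 0.015% (about 10) showed 50% or more at least once.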
MtTrpRS: 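Enzyme assay of tryptophanyl-tRNA synthetase; the read-out is not stated. Target: Tryptophan-tRNA ligase, Mycobacterium tuberculosis (UniProt P9WFT3). Compounds at 10 µM. Direction is not recorded; retested compounds ran higher, which suggests that high means inhibition. Size under these conditions: about 65,000 compounds, about 64 of them at 50% or above in at least one test.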
PfKRS1: 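Enzyme assay of the cytosolic lysyl-tRNA synthetase in 384-well plates, read by luminescence. Target: Lysine-tRNA ligase, Plasmodium falciparum 3D7 (UniProt Q8IDJ8). Compounds at 30 µM. Direction is inferred from only a few compounds that gave an IC50; most scored high, so higher reads as stronger inhibition. Of about 69,000 compounds tested this way, about 49 (0.071%) reached 50% or more in at least one test.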

Each number is a percent effect as filed.
How 0% and 100% were set is not recorded. Most values in the screen are low, and negative values occur.
This is an unselected part of the compounds tested.

Result for Cc1cccc(CN(Cc2nc3c(cnn3C)c(=O)[nH]2)C2CC2)c1 was ClpP1P2: -5.194%; MtTrpRS: -3.359%; PfKRS1: 2.209%. For COc1cc2c(cc1-c1nc3c(cnn3C(C)C3CC3)[nH]1)OCO2 (centres undefined) the result was ClpP1P2: 21.12%; MtTrpRS: -1.326%; PfKRS1: 4.24%. CNC(=O)c1ccc(=O)n(Cc2csc(N(C)C(C)=O)n2)c1 read ClpP1P2: 1.402%; MtTrpRS: 2.167%; PfKRS1: 1.434%. With CCCc1nc(N2CCC(CCO)CC2)c2cnn(C)c2n1 the screen gave ClpP1P2: -3.497%; MtTrpRS: 0.1282%; PfKRS1: 6.213%. With CCN1CCN(C(=O)Cn2ncc3c2c(C)nn3C(C)C)CC1 the screen gave ClpP1P2: -4.609%; MtTrpRS: 2.168%; PfKRS1: 2.186%. Cc1cnn(CC2CCCN2c2ncnc3c2CCC3)c1 (centres undefined) read ClpP1P2: -6.241%; MtTrpRS: 9.166%; PfKRS1: -8.111%. With CCS(=O)(=O)N1CCC2(CN(c3cccc(F)c3)C(=O)CN2C)C1 (centres undefined) the screen gave ClpP1P2: -0.5532%; MtTrpRS: -10.29%; PfKRS1: -1.277%.

For c1cnc(-c2cnc(N3CCCCC3)nc2C2CCCO2)cn1 (centres undefined) the result was ClpP1P2: -13.92%; PfKRS1: 1.392%. COc1cccc(CN2CCC(c3nnc(-c4cnc(C)cn4)o3)C2)c1 (centres undefined) read ClpP1P2: 4.175%; PfKRS1: 4.237%. Result for c1csc(CN2CCOCC3(CCN(C4CCOCC4)C3)C2)c1 (centres undefined) was ClpP1P2: -0.3149%; MtTrpRS: -2.616%; PfKRS1: -1.598%. Result for CC1CCN(CCCNC(=O)c2ccc(N(C)S(C)(=O)=O)cc2Cl)CC1 was ClpP1P2: -2.278%; MtTrpRS: 2.905%; PfKRS1: -1.029%. CC(C)(O)CCc1cccc(C(=O)NCC2COCCO2)c1 (centres undefined) read ClpP1P2: 0.2926%; MtTrpRS: -0.8189%; PfKRS1: 2.966%. For COc1cc(C)ccc1C(=O)N1CCC2(CCC(=O)N(C(C)C)C2)CC1 the result was ClpP1P2: -2.2%; MtTrpRS: -2.744%; PfKRS1: -2.199%. With CC(C)c1nc(CN2CCCN(c3nccs3)CC2)no1 the screen gave ClpP1P2: 2.267%; MtTrpRS: 4.351%; PfKRS1: 1.093%.

For Cc1nc2c(c(NC3CC3)n1)CCN(C(=O)CCO)CC2 the result was ClpP1P2: -1.454%; MtTrpRS: -7.16%; PfKRS1: -0.5805%. Cc1oncc1C(=O)N[C@@H]1CN(CC2CC2)C[C@@H]2CCCO[C@@H]21 gave ClpP1P2: -1.362%; PfKRS1: 3.149%. With Cc1ncccc1NC(=O)[C@@H]1C[C@@H]2CCN(Cc3cccs3)C[C@H]2O1 the screen gave ClpP1P2: -1.876%; MtTrpRS: 0.08231%; PfKRS1: 4.133%. For O=C(NCC1CCOCC1)[C@@H]1C[C@@H]2[C@@H](CCN2Cc2nccs2)O1 the result was ClpP1P2: -6.208%; MtTrpRS: -3.317%; PfKRS1: -1.544%. With CC(C)C1SCC(=O)Nc2c1cnn2-c1ccc(F)cc1 (centres undefined) the screen gave ClpP1P2: 1.692%; MtTrpRS: 2.733%; PfKRS1: 7.585%. CCN(Cc1cccc2c1OCO2)C(=O)Nc1ccccn1 gave ClpP1P2: -17.21%; MtTrpRS: -4.486%; PfKRS1: 0.8709%. Cn1ccnc1-c1cn(CCCc2csc(N)n2)nn1 read ClpP1P2: -17.07%; MtTrpRS: 5.05%; PfKRS1: 8.709%.

For reference, 2 entries once more:

compound	ClpP1P2	MtTrpRS	PfKRS1
Cn1ccnc1-c1cn(CCCc2csc(N)n2)nn1	-17.07	5.05	8.709
CC(C)C1SCC(=O)Nc2c1cnn2-c1ccc(F)cc1 (centres undefined)	1.692	2.733	7.585